These results are taken from paper PMC6891762, “Novel Isoxazolidine and γ-Lactam Analogues of Homonucleosides” (Molecules, 2019).

Each structure is given as a SMILES string.

For the test, the system named is Capan-1 (pancreatic adenocarcinoma) cells. Kind of test: Cytostatic activity, Capan-1. The format is cell-based. Particulars: concentration causing 50% decrease in cell proliferation. The method, then: The 50% cytostatic inhibitory concentration (IC50) causing a 50% decrease in cell proliferation was determined for all isolated isoxazolidines 14 and γ-lactams 15 toward nine cancerous cell lines (Capan-1 (pancreatic adenocarcinoma), Hap1 (chronic myeloid leukemia), HCT-116 (colorectal carcinoma), NCI-H460 (lung carcinoma), DND-41 (acute lymphoblastic leukemia), HL-60 (acute myeloid leukemia), K-562 (chronic myeloid leukemia), MM.1S (multiple myeloma) and Z-138 (non-Hodgkin lymphoma)) and normal retina (non-cancerous) cells (hTERT RPE-1). Docetaxel, etoposide and stauroporine were used as the reference compounds.
All assays were performed in 96-well microtiter plates. To each well was added (5−7.5) × 10^4 tumor cells and a given amount of the test compound. The cells were allowed to proliferate at 37 °C in a humidified, CO2-controlled atmosphere. At the end of the incubation period, the cells were counted in a Coulter counter. The IC50 (50% inhibitory concentration) was defined as the concentration of the compound that inhibited cell proliferation by 50%.

As usually defined, the IC50 is the concentration that inhibits the measured activity by half.

`CN[C@@H]1C[C@H]2O[C@@](C)([C@@H]1OC)n1c3ccccc3c3c4c(c5c6ccccc6n2c5c31)C(=O)NC4` [Stauroporine, reference compound]: the half-maximal inhibitory concentration (IC50) was determined as 0.66 µM.
